Data set [1] has as its system LARP1 LaM. The data set is described as follows: ITC. Particulars: 10 mM MES pH 6.3, 100 mM NaCl, 1 mM TCEP (HPLC and NMR buffer; ITC buffer not stated separately), ITC 293 K, NMR 25 C, recombinant protein, residues 323-410, protein details: N-terminal MGSSHHHHHHS
The test system of data set [2] is LARP1 LaM. The data set is described as follows: crystal structure. Particulars: 10 mM MES pH 6.3, 100 mM NaCl, 1 mM TCEP (HPLC and NMR buffer); recombinant protein; residues 323-410; protein details: N-terminal MGSSHHHHHHS

This note sets out measurements from PMC9458460.

For some assays here: Negatives hold for the conditions tested. For some assays here: The comparison behind a weaker result is the experiment's own reference, which may not be listed here. For some assays here: For at least one entry, the source does not settle the construct or the ends of the probe. For some assays here: At least one verdict was read from the data and is not stated in words by the source.

Consider AAAAAU [A5U], for which the binding result in data set [1] is given as “binds more weakly”.
With AAAUAA [A3UA2], the binding result in data set [2] is given as “binds”.
For the sequence AAAAAA [A5A(2'-OMe)], the binding result in data set [1] (2'-O-methyl on 3'-terminal A, synthetic backbone) is “no binding”.
For the sequence AAAAAAAAAAA [A11], in data set [2], the binding result was “binds”.
Turning to AAAAUA [A4UA], in data set [1], the binding result is “binds more weakly”.
